Most values lie at the floor of the assay. Slopes are relative: functional sequences can read slightly below zero.
Each substance was assayed on Saccharomyces cerevisiae PS128 hsf1 delta, HSF1(1-493) fusion (assay: growth estimate (transactivation domain function in HSF1 fusion, heat-shock survival) (a.u. (slope of normalised read count over time)); higher = stronger growth at 37°C, i.e. more transactivation activity). Settings: library: random library.
Description: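 Random 60-nt DNA library encoding peptides of up to 20 aa, fused to the C-terminus of yeast HSF1 residues 1-493 (C-terminal TAD deleted) and expressed from the native HSF1 promoter on a CEN plasmid in hsf1-deleted S. cerevisiae PS128. Cells were selected at 37°C on -trp 5-FOA plates for 0, 2, 4, 6 and 8 days and amplicons were sequenced. Growth estimate is the slope of a robust linear fit of total-sum-normalised read counts (normalised to the first time point) over time, using at least 2 replicates. Sequences are classed functional (TAD activity) above a threshold of -0.13, set from stop-codon control sequences.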

| Substance | growth estimate |
| --- | --- |
| VVRAVAGDCNSGTG | < -0.25 |
| EHSHFVERARESLDLRVE | < -0.25 |
| FTRHHMRSMGSAAVARHASG | < -0.25 |
| ASP | < -0.25 |
| SLAALYSHRASVLWLHVQV | < -0.25 |
| KGVVNLVIIGEGGQVC | < -0.25 |
| SRGCVASVVEFRGSKEICRP | < -0.25 |
| QPAWTFVSLNGEGYAAHAQG | < -0.25 |
| PWKPHFRSIIKWRNSTIYFN | < -0.25 |
| LRTY | < -0.25 |
| CAVVY | < -0.25 |
| LLGSGVRSYGCLGNECTP | < -0.25 |
| HGALTLFICLHVSRCLFPSL | < -0.25 |
| KYMGF | -0.243 |
| NGRFALKNGKTS | < -0.25 |
| RMGTLRSVRP | < -0.25 |
| WNTSEYSPEQVRKDPPRGVM | < -0.25 |
| RSSEGANRIQMVHPGL | -0.246 |
| MINTFVWGSIEGGGVVSKFG | < -0.25 |
| RWIQLGSMVGDLPVHPHGSE | < -0.25 |
| LILFRIQKARS | < -0.25 |
| SDARMCPRQDLRKN | < -0.25 |
| ASYDRNVFTSRPAA | < -0.25 |
| CTCDSSSGCCGFLLDP | < -0.25 |

Rewritten tab-delimited: entries from further up.
Substance	growth estimate
FTRHHMRSMGSAAVARHASG	< -0.25
ASP	< -0.25
SLAALYSHRASVLWLHVQV	< -0.25
KGVVNLVIIGEGGQVC	< -0.25

Later entries

| Substance | growth estimate |
| --- | --- |
| RVQVISRELVNRQAILPAVH | < -0.25 |
| KMKGAE | < -0.25 |
| AGANSHSVSYSRQPGLTSR | < -0.25 |
| KVDK | < -0.25 |
| GEDPAN | < -0.25 |
| EWMV | < -0.25 |
| HGHRHRRRPFVPRRTRKQCL | < -0.25 |
| AIEMSTLPSQYRRPKPP | < -0.25 |
| HSRAFSACIQIA | < -0.25 |
| TCEQPGIRCRQFRIVGPHWA | < -0.25 |
| ILH | < -0.25 |
| TQIVQLSFE | < -0.25 |
| EYWTLDRPKGGATHLSVTES | < -0.25 |
| SNLVSGFLHEADSMRNIRES | < -0.25 |
| SKQ | < -0.25 |
| DKGGPSRRHDSYATTHGELG | < -0.25 |
| ASHHSRKCW | < -0.25 |
| GRDWARSMFHIVLPSRPPVP | < -0.25 |
| DMKHEGAG | < -0.25 |
| YKESSRAARLLSNQTK | < -0.25 |
| GRPSSSKL | < -0.25 |
| ITTNRRSV | < -0.25 |
| PVVLPWHRIAVFAVNWLLVR | < -0.25 |
| QLRVSTGESMMILHSAAELQ | < -0.25 |

| Substance | growth estimate |
| --- | --- |
| LIYSTERLVPRRVRDRLPGP | < -0.25 |
| RVGPSSYSWTPSSLRRHKRA | < -0.25 |
| CVLLSALIICYLLNFVTFSY | < -0.25 |
| MYCFFEICNLKAVRGDFRVR | < -0.25 |
| ALKSPGVPPWYGPC | < -0.25 |
| GEQLSGIATPESGCALGR | -0.245 |
| TFSTECLR | < -0.25 |
| DMAICERTDPQGGFLQPLKR | < -0.25 |
| LRVVRVSWRGHTPGSSRNAM | < -0.25 |
| RTKGWGQPS | -0.246 |
| SMTLR | < -0.25 |
| GQDHIHWFRSQSGGTSHEQS | < -0.25 |
| ITDVKFDGIRSLRHEKYEGT | < -0.25 |
| WSREREAGVIVFGQEVW | < -0.25 |
| LPRWV | < -0.25 |
| MEDAGWSE | < -0.25 |
| KGKVGWSFIARC | < -0.25 |
| ALSSYKRSCIAGNLTPTSYY | < -0.25 |
| RSASEGI | < -0.25 |
| SGVAVLIADCKPVFAGLIPV | < -0.25 |
| MLYTLSGCSLRGRRRCDRIN | < -0.25 |
| LPNPNSRRLGV | < -0.25 |
| ERVCNPSLDREPMVERLMLF | < -0.25 |
| ILFHSDHYSMCCLRPLTILL | < -0.25 |

As entered above.
Value of MLYTLSGCSLRGRRRCDRIN under growth estimate: < -0.25
Value of SMTLR under growth estimate: < -0.25
Value of LRVVRVSWRGHTPGSSRNAM under growth estimate: < -0.25

Next records:

| Substance | growth estimate |
| --- | --- |
| VIGSMLQNGSFLAVWWSTPG | < -0.25 |
| SCLVVFPSRSVIPEKAP | < -0.25 |
| VELGNAQALAISLIELRTMV | < -0.25 |
| FVCNHSGSRDHTAWCAPGTA | < -0.25 |
| VILNVIPGGVSGSPACFCQA | < -0.25 |
| LCTERNRRCNRL | < -0.25 |
| IFNSRSGVRESH | < -0.25 |
| SHPRSYPLLLHEDPAQLYIG | < -0.25 |
| SKKVPSRPQAEVWLETD | < -0.25 |
| LSNPSLLDHLAPNLMVYLRP | < -0.25 |
| LLIICAARGLEQAANA | < -0.25 |
| IVSEIPTT | < -0.25 |
| VDREFEYPVRLSGGQLTGAH | < -0.25 |
| GCQTWSLCCFKACCRRGVSV | < -0.25 |
| TCGC | < -0.25 |
| GTSEPALTQ | < -0.25 |
| RNLSRGLSLHGDPKDTLLWS | < -0.25 |
| VTPPPPNVQRDRAGAVIMVS | < -0.25 |
| RTIRKCNYNMPMADACPWYG | < -0.25 |
| FFLGEPSGTLNGNNSYVGAE | < -0.25 |
| WSIRS | < -0.25 |
| AKI | < -0.25 |
| KEESI | < -0.25 |
| HASCGGGKIHWSVNW | < -0.25 |

| Substance | growth estimate |
| --- | --- |
| RVFVLARESPVVARQDPEVG | < -0.25 |
| SAYGTFLAEVILR | < -0.25 |
| NAVNNPLPFDSDHSVYAGPG | < -0.25 |
| FRI | < -0.25 |
| SSFSDTSVSGDWRADRKPGR | < -0.25 |
| TSYVCLEDKPLLSYRV | < -0.25 |
| KLDLQEQRR | < -0.25 |
| FPARNTFYE | < -0.25 |
| NRVEEGRRKP | < -0.25 |
| AKGGIMKSKSISRVLKRDLC | < -0.25 |
| VRVPAQIRVNILDA | < -0.25 |
| RRKSDPHDPVSRSIYI | < -0.25 |
| LLSVSLRIFTAG | < -0.25 |
| IGASSFYLHVEGDGYPRHKR | < -0.25 |
| KPLIRRLVRASAMGAVPMSG | < -0.25 |
| KISTRCRVDFCFNARCRSCL | < -0.25 |
| YDLRTWGTASDMAMANLCTQ | < -0.25 |
| LVGHSER | < -0.25 |
| NPRACSQRVRYFQMRRSLPC | < -0.25 |
| CQPEWGSSPLLVSDWGALQK | < -0.25 |
| YQIY | -0.229 |
| VTREMPEKCELVLLYEAIRS | < -0.25 |
| SIRPTSLRRPPAGTTRACRG | < -0.25 |
| LIVHLRRSCQHLRLFNMQRG | < -0.25 |

| Substance | growth estimate |
| --- | --- |
| CIFKTR | < -0.25 |
| RHRDLGTLNSGGEYDKVHFR | < -0.25 |
| LFVQEPGVKRNKV | < -0.25 |
| PVRVRGRVHARHSRGYLRSL | < -0.25 |
| PMDRVGSLASL | < -0.25 |
| LITYSHTRIWMVLCLFSV | < -0.25 |
| ARVGRSLALP | < -0.25 |
| SPQRALSFVPRDCPPNRLMI | < -0.25 |
| CLMHSVE | < -0.25 |
| SRYVKIRGMKDHIDDNGFLH | < -0.25 |
| TRIRR | -0.246 |
| ENPAGSCVYDREWLLFVDYC | < -0.25 |
| WSEGTHSKDPGGSMIAARAT | < -0.25 |
| CCYIIEAWSWRSPSKKDGRQ | < -0.25 |
| SGKPRDGLRATRRSGGRPSR | < -0.25 |
| WWTNNKRPMTQLFLVESSLS | < -0.25 |
| CCVRTIRASAISTNHTKYGR | < -0.25 |
| TPPIHPARLC | < -0.25 |
| SSNVSTHGRIPVPEIG | < -0.25 |
| LSRLFLDWTCTTV | < -0.25 |
| IGSEFSNQISPEPAIKSRVM | < -0.25 |
| PTVINSRYLSLVGYEHSSKS | < -0.25 |
| IESDCMGAMEH | < -0.25 |
| QPLG | < -0.25 |

| Substance | growth estimate |
| --- | --- |
| MGY | < -0.25 |
| RDYQCRVFPLGETYSTLNLE | < -0.25 |
| RPASD | < -0.25 |
| LPPAEWTADLHHITLAIHRW | < -0.25 |
| RYWNFISNALSCLDAG | < -0.25 |
| YRVRGL | < -0.25 |
| CRVIVILRFLGHWICC | < -0.25 |
| LALYCKCGVGDAPGVLRAIV | < -0.25 |
| VGHARLVFVYTLQGPQPHRC | < -0.25 |
| WNARRILIIVMPRTTISTPT | < -0.25 |
| RFSSKLPSCPDGLERKIPMS | < -0.25 |
| IISGDYCNCCYRLVWHKGHC | < -0.25 |
| HLDK | < -0.25 |
| FVC | < -0.25 |
| SSPIA | < -0.25 |
| VIILPGMARICHPGE | < -0.25 |
| RDIYNSTGAEHATPRDSIAD | < -0.25 |
| ASVRSGEEI | < -0.25 |
| RDKVISFVVSAKTYAQ | < -0.25 |
| SLRLCGLRDFMPHRS | < -0.25 |
| AVNNAGLSTLDCNCSM | < -0.25 |
| ALNLKKREGVFQQDVIKSFD | < -0.25 |
| HNRFPSTEKVPPLRVDVPPW | < -0.25 |
| NVRRLACEAHTFRFHSEL | < -0.25 |

| Substance | growth estimate |
| --- | --- |
| PDSNPVVI | < -0.25 |
| DGIRECCRLRTSV | < -0.25 |
| SEHE | < -0.25 |
| DSQSSSARVWLDLNQKQSCH | < -0.25 |
| DSLAPRGSFVPGTELTHTAP | < -0.25 |
| DDRSIGRLMTEGTYLRAESA | < -0.25 |
| SRSLIICAFPFYGLGCISES | < -0.25 |
| EDVVQPRGELAPS | < -0.25 |
| GTLDP | < -0.25 |
| KLNMLCNRVIKLNPRS | < -0.25 |
| MQWLRFN | < -0.25 |
| LVCHCGFHRL | < -0.25 |
| SGPGLVAGVSVS | < -0.25 |
| WEGLQSRIAHSLIIRFSYTL | < -0.25 |
| YHTRLLFMEGTHVVDPSPRC | < -0.25 |
| NYRLEGHENAVSKCPVITAA | < -0.25 |
| PTPGRVTSVL | -0.212 |
| YRSTSCGSVNWL | < -0.25 |
| EGYM | < -0.25 |
| VQAGSGSLKALVDNYPLMGG | < -0.25 |
| GGHLQYFVASEEWQTWCWRG | < -0.25 |
| ACAVVSS | < -0.25 |

Three entries from above, in CSV form:
Substance,growth estimate
SEHE,< -0.25
DSQSSSARVWLDLNQKQSCH,< -0.25
DSLAPRGSFVPGTELTHTAP,< -0.25
